According to publication PMC12040169 (PLOS Biology, 2025):
The other results are listed elsewhere or left out.

test system: T1, CTL2-GFP (C. trachomatis L2/434/Bu, GFP-expressing); parameters: species or system HeLa; Intracellular C. trachomatis growth in HeLa cells, bulk GFP fluorescence relative to DMSO; conditions: bulk GFP, single well; 28.5 h, 10 µM; inhibitor
T1 construct: L2/434/Bu, GFP-expressing

| SMILES | % of control remaining |
| --- | --- |
| CCOC(=O)c1sc(-c2ccccc2)nc1OCc1ccccc1Cl [CBK067727] | 99.128% |
| CCc1nnc(SC(C)C(=O)N2CCCc3ccccc32)[nH]1 (centres unmarked) [CBK306009] | 108.033% |
| C[C@]12CN(Cc3ccccc3)C[C@H]1NC(=O)c1ccccc1C2O (some centres unmarked) [CBK282302] | 85.8025% |
| COc1nccc(N2CCCC(CO)(CC3CC3)C2)c1C#N (centres unmarked) [CBK307553] | 139.207% |
| CC(C)(C)OC(=O)N1CCC(CNS(C)(=O)=O)CC1 [CBK003925] | 130.73% |
| CS(=O)(=O)N[C@H]1CCN2C(=O)c3cc(-c4ccc(Cl)cc4)ccc3NC(=O)[C@@H]2C1 [CBK289565] | 118.279% |
| Cc1cccc(C)c1NC(=O)Nc1cc(N2CCNCC2)c2occc2c1 [CBK061748C] | 103.089% |
| Fc1ccc(-c2c[nH]nc2C2CCOCC2)cc1 [CBK283464] | 101.851% |
| O=C1CCC[C@]2(CN(Cc3ccccc3)C[C@H]2c2ccncc2)N1 [CBK283348] | 134.159% |
| O=C(CCC1COc2ccccc2O1)N1CCN(Cc2ccccc2)CC1 (centres unmarked) [CBK269767] | 94.3901% |
| O=C(O)c1ccc(-n2ncc3ccccc3c2=O)cc1 [CBK288229] | 129.076% |
| O=C(CCOc1ccccc1F)Nc1cnc(-c2ccc(F)cc2)c(-c2ccsc2)n1 [CBK036897] | 139.702% |
| Cc1cc(=O)n(C)c(=O)n1CCCCCN1CCCC1 [CBK027386] | 144.834% |
| O=C(/C=C/c1ccccc1)NC(NCc1cccnc1)C(Cl)(Cl)Cl (centres unmarked) [CBK261804] | 52.1366% |
| COc1ccc([C@@]23CC[C@@H](NC(=O)Nc4ccc5c(c4)OC(F)(F)O5)C[C@@H]2N(C)CC3)cc1OC [CBK073743T] | 100.186% |
| CCCc1c(Cc2c(Cl)cccc2Cl)c(=O)n(C)n1C [CBK115466] | 112.614% |
| CSCC[C@@H]1NC(=O)N(c2ccc(CN3CCOCC3)cc2)C1=O [CBK287954] | 168.332% |
| O=C(c1cncnc1)N1CCC(F)CC1 [CBK200384] | 94.151% |
| CC1CCCN(Cc2c(C3CCCNC3)[nH]c3ncccc23)C1 (centres unmarked) [CBK285112] | 145.158% |
| CCN1CCN(c2ccc(NC(=O)c3cc(-n4cnnc4)ccc3Cl)cc2Cl)CC1 [CBK269343] | 174.432% |
| O=C(CSc1ccc(F)cc1)Nc1cc(Cl)ccc1O [CBK268685] | 150.48% |
| O=C(O)COc1ccc(N2C(=O)C(O)=C(C(=O)c3ccccc3)C2c2cccc(F)c2)cc1 (centres unmarked) [CBK287010] | 155.858% |
| CN1CCC(N(C)C(=O)NCc2cccc3ccccc23)C1 (centres unmarked) [CBK155999] | 110.132% |
| Cc1ccc2nc(-c3ccc(/N=C/c4cccc(O)c4O)cc3)sc2c1 [CBK261583] | 98.648% |
| COc1cc(/C=N/NC(N)=O)ccc1OC(=O)c1sc2ccccc2c1Cl [CBK262265] | 98.4498% |

| SMILES | % of control remaining |
| --- | --- |
| Cc1ccc(S(=O)(=O)NCC(=O)N2CCN(Cc3ccccc3)CC2)cc1 [CBK265991] | 132.201% |
| Nc1nc2ccccc2cc1-c1cccs1 [CBK112549] | 76.7212% |
| Cn1nc(-c2ccc(N3CCCCC3)c(NC(=O)COc3ccccc3)c2)c2ccccc2c1=O [CBK265780] | 162.213% |
| CCCCCNC(=O)C1CCN(Cn2c(=O)oc3cc(Cl)ccc32)CC1 [CBK298290] | 119.254% |
| CCCNC(=O)N1CCN2C(=O)c3cc(-c4ccccc4F)ccc3NC(=O)[C@@H]2C1 [CBK289595] | 113.88% |
| CCC(=O)N1CCCc2cc(C(O)CN3CCN(c4ccc(F)cc4)CC3)ccc21 (centres unmarked) [CBK286480] | 16.7832% |
| COc1ccc(Cc2nc(CC3CCCOC3)n(CC(F)(F)F)n2)cc1 (centres unmarked) [CBK307140] | 109.68% |
| NS(=O)(=O)c1ccc(-c2nc(-c3ccccc3)no2)cc1 [CBK269957] | 121.296% |
| COCOc1ccc(-c2nccnc2OCCc2cccs2)cc1 [CBK106911] | 124.529% |
| COc1cccc2sc(NC(=O)c3c(F)cccc3F)nc12 [CBK149283] | 140.844% |
| CCCn1cc(C(=O)NCc2ccc(Cl)cc2)c(=O)c2cc(CN3CCOCC3)sc21 [CBK018478] | 99.661% |
| CN(C)S(=O)(=O)c1ccc(-c2nn(-c3ccccc3)cc2/C=C(\C#N)c2nc3ccccc3c(=O)[nH]2)cc1 [CBK266266] | 183.381% |
| NCCCC(C(=O)O)C(=O)c1ccccc1-c1ccccc1 (centres unmarked) [CBK286941] | 101.411% |
| CN(C)c1ccc(-c2nnc([C@H]3CCN(C(=O)c4ccccc4)C3)o2)cc1 [CBK289407] | 117.741% |
| Cc1ccc(S(=O)(=O)/N=C(\Nc2nc3ccccc3o2)NS(=O)(=O)c2ccc(C)cc2)cc1 [CBK266728] | 90.8323% |
| CCn1c2ccccc2c2cc(NC(=O)CN(C)S(=O)(=O)c3ccc(C)cc3)ccc21 [CBK266756] | 113.003% |
| CCOC(=O)c1sc(-c2ccc(C(C)(C)C)cc2)nc1O [CBK078538] | 103.97% |
| C#CCn1cc(CN2CCc3c(nc(C)[nH]c3=O)C2)c2ccccc21 [CBK282382] | 126.454% |
| COc1ncc(-c2nccnc2N[C@H](C)c2ccccc2)c(OC)n1 [CBK036588] | 97.9504% |
| Cn1cc(C2CCCCCN2C(=O)c2cccc(F)c2)cn1 (centres unmarked) [CBK284970] | 101.569% |
| Clc1cccc(CNc2nccnc2-c2ccoc2)c1 [CBK036616] | 104.762% |
| O=C(CC1C(=O)N(c2ccccc2)C(=S)N1NC(=O)c1ccccn1)Nc1ccc(Cl)cc1 (centres unmarked) [CBK266711] | 77.7487% |
| Oc1ccc(CN2CCN(Cc3ccc(Br)s3)CC2)c2cccnc12 [CBK295645] | 49.2598% |
| CCn1c(=O)n(CC(=O)N2CC(C)CC(C)C2)c2cccnc21 (centres unmarked) [CBK283845] | 110.298% |
| COc1ccc(Nc2ccc(-c3ccc4c(c3)OCO4)cn2)c(C)c1 [CBK036799] | 121.286% |

Copied from the results shown for reference:

| SMILES | % of control remaining |
| --- | --- |
| COc1ccc(Cc2nc(CC3CCCOC3)n(CC(F)(F)F)n2)cc1 (centres unmarked) [CBK307140] | 109.68% |
| NS(=O)(=O)c1ccc(-c2nc(-c3ccccc3)no2)cc1 [CBK269957] | 121.296% |
| COCOc1ccc(-c2nccnc2OCCc2cccs2)cc1 [CBK106911] | 124.529% |
| COc1cccc2sc(NC(=O)c3c(F)cccc3F)nc12 [CBK149283] | 140.844% |
